Results deposited as PubChem BioAssay AID504808 (Drosophila RNAi Screening Center, 2011).
Screen: 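Genes whose loss lifts activity of an E2F-responsive reporter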 (primary screen). System: Drosophila S2 cells. Reagents: long dsRNA against Drosophila genes. Measurement: 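Dual luciferase plate measurements; E2F-specific signal taken as firefly over Renilla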. Direction: E2F firefly: higher = more E2F reporter activity; Renilla normaliser: higher = more normaliser reporter signal. Rule for the call: 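a knock-down counted as active when the firefly/Renilla E2F signal rose above 50%, a threshold chosen arbitrarily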.
The deposit covers about 21,000 reagents; shown is a random part of those that have a named target and a result. Of all reagents, 18 (0.084%) were called active. 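Raw counts without plate normalisation, one of two replicates; the ratio scores behind the calls were not deposited.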 Reagent sequences are not shown. Not stated in the record: the amount of reagent, the time to read-out.

The first 4 records, to show the layout:
target gene | DRSC id | E2F firefly, rep 1 | Renilla normaliser, rep 1 | call
AstC-R2 (GeneID 40019) | DRSC10051 | 1.69e5 | 9682 | inactive
CG6729 (GeneID 34484) | DRSC02984 | 75615 | 3606 | inactive
CG12237 (GeneID 32967) | DRSC19449 | 1.67e5 | 5611 | inactive
ND-B22 (GeneID 34747) | DRSC03193 | 1.04e5 | 4743 | inactive

Results, repeating the preview:
target gene | DRSC id | E2F firefly, rep 1 | Renilla normaliser, rep 1 | call
AstC-R2 (GeneID 40019) | DRSC10051 | 1.69e5 | 9682 | inactive
CG6729 (GeneID 34484) | DRSC02984 | 75615 | 3606 | inactive
CG12237 (GeneID 32967) | DRSC19449 | 1.67e5 | 5611 | inactive
ND-B22 (GeneID 34747) | DRSC03193 | 1.04e5 | 4743 | inactive
Psi (GeneID 36889) | DRSC07519 | 1.54e5 | 5829 | inactive
TpnC47D (GeneID 36195) | DRSC07564 | 89326 | 3742 | inactive
CG15905 (GeneID 37257) | DRSC06591 | 1.64e5 | 5393 | inactive
CG3598 (GeneID 31283) | DRSC18471 | 1.17e5 | 7147 | inactive
Sema2b (GeneID 246538) | DRSC05609 | 1.46e5 | 6578 | inactive
Sema2b (GeneID 246538) | DRSC05611 | 1.57e5 | 5963 | inactive
Sema2b (GeneID 246538) | DRSC06867 | 1.40e5 | 4509 | inactive
l(2)k09022 (GeneID 33960) | DRSC02108 | 93686 | 4070 | inactive
Chd3 (GeneID 40111) | DRSC11114 | 1.23e5 | 5290 | inactive
CG13738 (GeneID 39541) | DRSC10065 | 1.17e5 | 7285 | inactive
Scm (GeneID 41168) | DRSC16853 | 1.62e5 | 6007 | inactive
CG12519 (GeneID 40114) | DRSC10311 | 1.47e5 | 6131 | inactive
eIF3g2 (GeneID 42422) | DRSC14275 | 1.15e5 | 7678 | inactive
CG31326 (GeneID 41728) | DRSC16532 | 1.04e5 | 4987 | inactive
shop (GeneID 32878) | DRSC20030 | 1.31e5 | 5186 | inactive
HSPBAP1 (GeneID 43329) | DRSC14567 | 1.29e5 | 5887 | inactive
Noc1 (GeneID 39240) | DRSC10921 | 74284 | 4422 | inactive
SdhD (GeneID 42808) | DRSC14215 | 1.07e5 | 5582 | inactive
Ance-5 (GeneID 37980) | DRSC04055 | 73750 | 3205 | inactive
Bbd (GeneID 37314) | DRSC06709 | 1.51e5 | 4897 | inactive
CG14050 (GeneID 31218) | DRSC18594 | 1.03e5 | 4986 | inactive
CG33966 (GeneID 3885642) | DRSC08256 | 90010 | 4065 | inactive
Cubn2 (GeneID 39334) | DRSC10561 | 1.41e5 | 7587 | inactive
CG13836 (retired record) (GeneID 42741) | DRSC14686 | 1.08e5 | 6335 | inactive
CG34251 (GeneID 5740860) | DRSC09498 | 1.35e5 | 3650 | inactive
CG34251 (GeneID 5740860) | DRSC09500 | 1.53e5 | 4121 | inactive
CG32815 (GeneID 318224) | DRSC18177 | 66510 | 3921 | inactive
bero (GeneID 35355) | DRSC03211 | 96536 | 4162 | inactive
CG6426 (GeneID 36891) | DRSC06985 | 1.50e5 | 5180 | inactive
CG12853 (GeneID 50220) | DRSC06193 | 1.05e5 | 4252 | inactive
